# Experimental data taken from the supplement of paper PMC10735217.
# Some of the results follow. Repeats in this data set agree poorly, so a single value says little.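 Human kidney-derived cells stably carry a construct in which eight TEAD-binding elements drive luciferase, measured by luminescence in a drug-repurposing library screen. A hit is any compound whose signal exceeds the plate mean by more than five robust Z scores.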
# Test system: HEK293A TEAD-LUC reporter
# Assay: TEAD-luciferase reporter activity (YAP activation), robust Z score vs plate; higher = stronger YAP/TEAD activation
# Conditions: 24 h
SMILES,TEAD-luciferase reporter activity (compound concentration: 200 nM),TEAD-luciferase reporter activity (compound concentration: 2 uM),TEAD-luciferase reporter activity (compound concentration: 10 uM)
C=CC1=C(C)C2=Cc3c(C)c(CCC(=O)O)c4[n]3[Fe]([Cl])[n]3c(c(C)c(C=C)c3=CC3=NC(=C4)C(CCC(=O)O)=C3C)=CC1=N2,inactive: -0.632,inactive: -0.456,inactive: 0.0655
CCCCCCCCCCCCCCCCCCCC(=O)N[C@H]1CC[C@]2(C)C3C[C@H](O)[C@@]4(C)C(CC[C@@H]4[C@H](C)CCC(=O)O)[C@@H]3[C@H](O)C[C@@H]2C1 (some centres not stated) [Aramchol],inactive: 0.904,inactive: 1.35,inactive: 1.05
O=C(OCC(O)CO)c1ccccc1Nc1ccnc2c(C(F)(F)F)cccc12 (configuration not stated) [floctafenine],inactive: 0.854,inactive: 0.763,inactive: 0.739
CC1=C(c2ccc(NN=C(C#N)C#N)cc2)NNC(=O)C1 [levosimendan],inactive: -1.53,inactive: 0.137,inactive: 0.749
CCc1cc(C(C)=O)c(O)cc1OCCCCCC(C)(C)c1nnn[nH]1,inactive: -1.16,inactive: 1.23,inactive: 0.176
CC(=O)Nc1ccc(OC(=O)c2ccccc2O)cc1,inactive: -0.504,inactive: -0.592,inactive: 0.61
FC(F)(F)c1cc(Br)cc(Nc2nnc(Cc3ccncc3)c3ccccc23)c1,inactive: -2.35,inactive: -1.34,inactive: -1.65
CC(=O)N(C)C1(c2ccccc2)CCN(CCC[C@]2(c3ccc(Cl)c(Cl)c3)CCCN(C(=O)c3ccccc3)C2)CC1 [Osanetant],active: 5.35,inactive: -0.253,inactive: -0.899
Cc1c(Cn2c(C)nc3c(C(=O)O)cc(N4CCOCC4)cc32)cccc1C(F)(F)F,inactive: 1.22,inactive: 1.35,inactive: -0.648
"CCN(CC)CCNC(=O)c1ccc(N)cc1 [procainamide, Elan]",,inactive: 0.231,
CCN(CC)CCNC(=O)c1ccc(N)cc1 [Pronestyl],inactive: 0.344,,inactive: -0.747
NC(=O)c1cc[n+](COC[n+]2ccccc2/C=N/O)cc1,inactive: -0.954,inactive: 1.6,inactive: -0.334
CCOc1ccc(NC(=O)C(C)O)cc1 (configuration not stated),inactive: -1.96,inactive: -1.79,inactive: -0.591
O=C(O)C[CH2][Ge](=[O])[O][Ge](=[O])[CH2]CC(=O)O [proxigermanium],inactive: 0.15,inactive: -1.04,inactive: 1.86
Nc1ncnc2c1ncn2[C@@H]1O[C@@H]2COP(=O)(S)O[C@@H]3[C@@H](O)[C@H](COP(O)(=S)O[C@H]2[C@H]1O)O[C@H]3n1cnc2c(N)ncnc21 (some centres not stated),inactive: -0.463,inactive: 1.39,inactive: 1.25
C[C@@]1(C(=O)N[C@@H](CCC(=O)O)C(=O)O)CCCN1C(=O)CN [Trofinetide],inactive: -1.79,inactive: -0.0762,inactive: -0.374
COC(=O)[C@H](Cc1ccccc1)NC(=O)c1ccc(C(F)(F)F)cc1,inactive: 0.246,inactive: -0.484,inactive: 0.385
Cc1cccc(C)c1NC(=O)CN1CCCCCC1 [pincainide],inactive: -0.586,inactive: -0.876,inactive: 0.347
CCN(CC)CCC(c1ccccc1)C1CCCCC1 (configuration not stated),inactive: -1.34,inactive: 0.146,inactive: 0.834
C[C@H](N)C(=O)N[C@@H](CCC(N)=O)C(=O)O [Glutamine dipeptide],inactive: -1.17,inactive: 1.69,inactive: -0.423
CN(C)[C@@H]1C(O)=C(C(=O)NCNC(CCCCN)C(=O)O)C(=O)[C@@]2(O)C(O)=C3C(=O)c4c(O)cccc4[C@@](C)(O)[C@H]3C[C@@H]12 (some centres not stated),inactive: -0.686,inactive: 0.0114,active: 10.5
COc1ccc(CNc2c(NCCCN(C)C)c(=O)c2=O)cc1,inactive: 0.258,inactive: -1.43,inactive: -0.78
CN1Cc2cccc3scc(c23)S1(=O)=O,inactive: -0.79,inactive: -0.385,inactive: -1.26
N#Cc1cccnc1N1CCOCC1,inactive: 2.4,inactive: -0.0976,inactive: -1.31
O=C(Nc1ccc(Cl)cc1)c1cc(Br)ccc1O,inactive: 1.22,inactive: 0.00317,inactive: 2.2
c1cc2cc3ccc(OCCN4CCCCC4)cc3nc2cc1OCCN1CCCCC1,inactive: 0.251,inactive: -0.436,inactive: -0.481
COc1cccc(NC(=O)c2ccc(CN3CCCC3)cc2)c1,inactive: -0.601,inactive: 1.34,inactive: 2.48
C1=CC2=N/C(=N\c3ccc(OCCN4CCCC4)c(c3)COC/C=C/COCc3cccc2c3)N1 [Pacritinib],inactive: -1.14,inactive: 4.94,inactive: 2.14

# Some of the entries so far, bar-delimited:
SMILES | TEAD-luciferase reporter activity (compound concentration: 200 nM) | TEAD-luciferase reporter activity (compound concentration: 2 uM) | TEAD-luciferase reporter activity (compound concentration: 10 uM)
CCCCCCCCCCCCCCCCCCCC(=O)N[C@H]1CC[C@]2(C)C3C[C@H](O)[C@@]4(C)C(CC[C@@H]4[C@H](C)CCC(=O)O)[C@@H]3[C@H](O)C[C@@H]2C1 (some centres not stated) [Aramchol] | inactive: 0.904 | inactive: 1.35 | inactive: 1.05
O=C(OCC(O)CO)c1ccccc1Nc1ccnc2c(C(F)(F)F)cccc12 (configuration not stated) [floctafenine] | inactive: 0.854 | inactive: 0.763 | inactive: 0.739

# (continued)

SMILES,TEAD-luciferase reporter activity (compound concentration: 200 nM),TEAD-luciferase reporter activity (compound concentration: 2 uM),TEAD-luciferase reporter activity (compound concentration: 10 uM)
NC(=S)NN=C1C=CC(=NN=C(N)N)C=C1 [ambazone],inactive: -1.56,inactive: -0.156,inactive: -2.16
CC(C)CN(C[C@@H](O)[C@H](Cc1ccccc1)NC(=O)O[C@H]1CO[C@H]2OCC[C@H]21)S(=O)(=O)c1ccc(N)cc1 [Darunavir],inactive: -0.867,,inactive: -0.132
CC(C)CN(C[C@@H](O)[C@H](Cc1ccccc1)NC(=O)O[C@H]1CO[C@H]2OCC[C@H]21)S(=O)(=O)c1ccc(N)cc1 [darunavir],,inactive: -0.605,
COc1ccc(/C=C/C(=O)Nc2ccc3c(c2)NC(=O)C(C)(C)O3)cc1,inactive: 0.554,inactive: 0.385,active: 5.06
CC(NC(=O)C(C)NC(=O)C(N)CCCC(N)C(N)=O)C(=O)O (configuration not stated),inactive: -0.411,inactive: -0.0627,inactive: 1.53
COc1cccc(OCCCN)c1-c1cc(Nc2cnc(C#N)cn2)n[nH]1,inactive: -0.4,inactive: -1.72,inactive: -1.5
CN(C)CCN1C(=O)c2cccc3cc(NC(N)=O)cc(c23)C1=O,inactive: -1.86,inactive: 0.194,inactive: -0.801
CC(=O)NCC1CC(c2ccc(-c3ccccc3)cc2)=NO1 (configuration not stated),inactive: -1.05,inactive: -0.55,inactive: -0.616
O=C(O)COc1ccccc1/C=N/NC(=O)c1ccncc1,inactive: -1.06,inactive: -0.325,inactive: -1.59
COc1cc2c(cc1OC)[C@@H](CCN1CCN(c3ccccc3)CC1)[C@@H](C)N2,inactive: 1.19,inactive: -0.91,inactive: -0.554
O=[N+]([O-])c1cc(Cl)cc(Cc2cc(Cl)cc([N+](=O)[O-])c2O)c1O,inactive: 3.65,inactive: -1.74,inactive: 0.714
CC(=O)NC[C@H]1CC(c2ccc(C3=CCN(C(=O)CO)CC3)cc2)=NO1,inactive: -0.382,inactive: -2.06,inactive: -1.12
CCOC(=O)[C@H](Cc1ccc(N)nc1)c1cn(C2CCCCC2)cn1,inactive: 0.842,inactive: -1.76,inactive: -0.231
COC(=O)N[C@H](C(=O)N1CCC[C@H]1c1nc(-c2ccc3c(c2)O[C@@H](c2ccccc2)n2c-3cc3cc(-c4c[nH]c([C@@H]5CCCN5C(=O)[C@@H](NC(=O)OC)C(C)C)n4)ccc32)c[nH]1)C(C)C [Elbasvir],inactive: 2.83,inactive: -1.54,inactive: -0.641
O=C1Cc2ccccc2C(=C2CCN(CCOCCOCCO)CC2)c2ccsc21 [etolotifen],inactive: -0.463,inactive: -0.695,inactive: 0.0739
O=C(O)C[C@@H](CCc1c[nH]c2ccccc12)NC(=O)CNC(=O)CCCC1CCNCC1,inactive: 3.1,inactive: -0.268,inactive: 2.09
Nc1nc(N2CCOCC2)nc(-n2ccnc2)n1,inactive: -1.81,inactive: -1.57,inactive: 1.86
COC(=O)c1c(C)cc(OC(=O)c2c(C)cc(O)c(C=O)c2O)c(C)c1O,inactive: -1.1,inactive: -0.367,inactive: 1.97
O=C1CN(S(=O)(=O)c2ccc3cc(Cl)ccc3c2)CC2(CO)OC3(CCNCC3)CN12 (configuration not stated),inactive: -1.26,inactive: -1.7,inactive: 2.88
C#C[C@]1(O)CC[C@H]2[C@@H]3CCC4=CC(=O)CC[C@@H]4[C@H]3C(=C)C[C@@]21CC [Etonogestrel],inactive: -1.47,inactive: -0.771,inactive: -1.41
CCCCc1nc(-c2ccc(OCCCN(CC)CC)cc2)cn1-c1ccc(Oc2ccc(Cl)cc2)cc1 [Azeliragon],inactive: 0.479,inactive: 0.713,inactive: 3.96
CCOC(=O)c1cc2cc3ccoc3cc2oc1=O [3-Carbethoxypsoralen],inactive: -0.458,inactive: 1.51,inactive: -0.312
COc1ccc(CNC(=O)c2cc(-c3cncc(C)c3)ncc2-c2nccs2)nc1OC,inactive: -1.26,inactive: -0.325,inactive: 0.125
O=C(Cn1ccnc1)c1ccc2ccccc2c1 [nafimidone],inactive: 2.99,inactive: -1.49,inactive: -1.48
O=C(O)/C=C\c1ccccc1 [Cinnamic acid],inactive: -0.191,inactive: -0.742,inactive: 3.22
O=C1N(CCN2CCC(c3noc4cc(F)ccc34)CC2)CCN1c1ccccc1,inactive: -0.894,inactive: -1.67,inactive: -1.31
COc1ccc(CCN(C)CCCC(C#N)(c2ccc(OC)c(OC)c2)C(C)C)cc1OC (configuration not stated) [verapamil CDT],,inactive: 1.89,
